A short description of this experiment: qHTS Assay to Find Inhibitors of Chronic Active B-Cell Receptor Signaling. To be noted: ABC-DLBCL IkBa-CBG/CBR reporter, luminescence ratio (green luciferase fused to IkBa over red control in TMD8 lymphoma cells), 4 h. In short, it runs like this:
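TMD8 ABC-DLBCL cells carrying doxycycline-inducible green luciferase fused to IkappaBalpha plus unfused red luciferase were exposed to compounds (up to 46 uM) for 4 hrs at 37C. Activity came from the overlap-corrected green/red luminescence ratio.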
On the technique in general: Quantitative high-throughput screening tests each substance at several concentrations.

The mark [1] stands for this setting: measured here: CBR red luminescence, cell number.
[2] abbreviates: measured here: IkBa-CBG green luminescence.

Some of the results follow. These are further read-outs of the screen, such as a control signal, another cell line or another target. No call is given for them. Compounds called inactive in the main read-out are mostly missing here. Potencies come from curve fits of mixed quality, noted in brackets.

Turning to `COc1cc2cc(C)nc(Cc3cccc4ccccc34)c2cc1OC`, the AC50 – broadly, the midpoint of the concentration-response curve, whichever way the signal moves – under setting [1] is 16.4 µM [rising, single point].
For the compound `O=C(CCc1ccccc1)OCC(=O)c1ccc([N+](=O)[O-])cc1`, under setting [1], the concentration at half-maximal activity (AC50) was 3.55 µM [rising, single point].
Same read-out and setting: with `COc1ccc(C(=O)Nc2cccc(NC(=O)c3cccs3)c2)cc1OC` the figure was 12.6 µM [falling, partial curve, poor fit]; with `COc1ccc(/C=C/C(=O)c2ccc([N+](=O)[O-])o2)cc1OC`, 4.11 µM [falling, partial curve, poor fit].
Regarding `CN1CCN(c2ccc(Cl)cc2NC(=O)CC2OC(=O)c3ccccc32)CC1` (stereo not given), under setting [1], the half-maximal activity concentration (AC50) is 25.9 µM [falling, single point].
As for `CCc1cc2c(nc1CC)CCN(CC/C(C)=N/O[C@@H](C)c1cc(-c3c(C)cc(C)cc3C)no1)C2`, the AC50 under setting [1] is 8.2 µM [falling, partial curve].
Regarding `COc1cc2c(cc1OC)C(c1cc3cc(OC)c(OC)cc3[nH]c1=O)N(C(=O)C1CC1)CC2` (stereo not given), the AC50 under setting [2] is 11.2 µM [falling, partial curve].
With `O=C(NCc1cccnc1)C(=O)Nc1nc(-c2ccccc2)cs1`, the concentration at half-maximal activity (AC50) under setting [1] was 10 µM [falling, partial curve, poor fit].
As to `CC(=O)Nc1nc(C)c(-c2csc(Nc3ccccn3)n2)s1`, under setting [1], the AC50 is 10 µM [falling, partial curve].
The same measure, in the same setting: with `CCCn1nc(NC(=O)c2cccs2)c2cc3cc(OC)ccc3nc21` the figure was 0.731 µM [falling, full curve, poor fit]; with `COc1cc2c(cc1OC)CN(CC(=O)Nc1ccc(F)cc1)C(C(=O)O)C2` (stereo not given), 17.8 µM [falling, partial curve, poor fit]; with `O=C(CNC(=O)c1cccs1)N/N=C/c1ccc(O)cc1O`, 10 µM [falling, partial curve, poor fit].
Still for that read-out and setting: with `CN(C1CCCCC1)S(=O)(=O)c1ccc2[nH]c(=O)oc2c1` the figure was 1.12 µM [rising, full curve, poor fit]; with `Cn1ncc(Cl)c1C(=O)N1CCN(c2ccc(F)cc2)CC1`, 28.2 µM [falling, single point].
Regarding `Cc1ccc(CSC2=NCCN2C(=O)c2ccc([N+](=O)[O-])cc2)cc1`, the AC50 under setting [2] was 35.5 µM [rising, partial curve, poor fit].
For `COc1ccccc1CNC(=O)c1ccccc1N`, the AC50 under setting [1] is 6.51 µM [falling, full curve, poor fit].
Consider `COC(=O)CSc1nc2ccc(C)cc2cc1C#N`, for which the AC50 under setting [1] was 11.2 µM [falling, partial curve, poor fit].
`COc1ccc(NC(=O)CSc2nnc(C)n2N)cc1S(=O)(=O)N1CCCCC1`: the concentration at half-maximal activity (AC50) under setting [1] was 6.51 µM [rising, single point].
`O=c1c2c([N+](=O)[O-])cc([N+](=O)[O-])cc2sn1Cc1ccccc1`: the AC50 under setting [1] is 22.4 µM [falling, single point].
Regarding `O=C(NCCc1cccnc1)c1cc(COc2ccc(F)cc2Cl)on1`, the AC50 under setting [1] is 35.5 µM [falling, single point].
Same read-out and setting: with `O=C(Cn1nnc(-c2ccc(OCc3ccccc3F)cc2)n1)N1CCOCC1` the figure was 0.731 µM [falling, full curve].
Take `CCCCn1c(=N)n(CC(=O)c2ccc([N+](=O)[O-])cc2)c2ccccc21`: under setting [1], the AC50 is 14.1 µM [rising, single point].
In the case of `Cc1cc(C)nc(Sc2ccc(/C=C(\C#N)C(=O)Nc3ccccc3)o2)n1`, under setting [1], the AC50 was 1.64 µM [rising, partial curve, poor fit].
`CCC(=O)N1CCC2(CC1)Oc1ccc(F)cc1C(=O)C21CC(c2ccc(Cl)cc2)=NO1` (stereo not given): under setting [1], the AC50 is 35.5 µM [falling, single point].
In the case of `Cc1cc(-c2csc(NC(=O)c3cc4ccccc4o3)n2)c(C)n1C`, the AC50 under setting [1] is 18.4 µM [falling, partial curve, poor fit].
For `O=C(COc1ccc(Cl)cc1Br)Nc1ccncc1`, the concentration at half-maximal activity (AC50) under setting [1] was 3.16 µM [rising, partial curve, poor fit].
For the compound `Cc1occc1C(=O)Nc1c(F)c(F)c(F)c(F)c1F`, the AC50 under setting [2] was 29.1 µM [falling, single point].
With `Cc1nc(N2CCN(c3ccccn3)CC2)c2c(C)c(C(=O)Nc3c(F)cc(F)cc3Br)sc2n1`, the AC50 under setting [1] is 2.82 µM [falling, full curve, poor fit].
Take `Cc1ccc(C2c3c(oc4ccccc4c3=O)C(=O)N2c2nncs2)cc1` (stereo not given): the AC50 under setting [1] was 11.2 µM [rising, partial curve, poor fit].
For `O=C1C=C(/C=C/c2ccccc2)C[C@@H](c2ccc(F)cc2)C1`, the AC50 under setting [1] was 18.4 µM [rising, partial curve].
Regarding `CCSc1nnc2c(n1)OC(c1ccc(OCC(=O)O)cc1)Nc1ccccc1-2` (stereo not given), the AC50 under setting [1] was 11.2 µM [falling, partial curve, poor fit].
On to `CC1CC(Nc2ccccc2N)=CC(=O)O1` (stereo not given), for which the AC50 under setting [2] is 32.6 µM [rising, partial curve, poor fit].
Consider `COCCN(C(=O)CSc1nnc(-c2ccccc2OC)o1)c1c(N)n(CC(C)C)c(=O)[nH]c1=O`, for which, under setting [1], the AC50 is 32.6 µM [rising, partial curve, poor fit].
As to `CC(=O)N1CCOc2ccc(S(=O)(=O)NC[C@H]3O[C@@H](n4cnc5c(N)ncnc54)[C@H](O)[C@@H]3O)cc21`, the AC50 under setting [1] was 18.4 µM [rising, partial curve, poor fit].
Take `COc1ccc(C(=O)CCN2CCN(c3ccccc3F)CC2)cc1`: under setting [1], the AC50 is 35.5 µM [falling, single point].
Take `COc1cccc(-c2nc(C(N)=O)c3[nH]c(=O)n(-c4ccccc4)c3n2)c1OC`: the AC50 under setting [1] was 29.1 µM [rising, single point].
Regarding `COc1cc(OC)cc(C(=O)OCC(=O)c2ccc(S(=O)(=O)N3CCCCC3)cc2)c1`, the AC50 under setting [1] was 29.1 µM [rising, partial curve, poor fit].
`CCCC(=O)N/C(N)=N/c1nc2ccccc2o1`: the AC50 under setting [1] is 10 µM [falling, partial curve].
As for `O=C(CN1C(=O)/C(=C/c2ccccc2F)Sc2ccccc21)NCc1cccnc1`, the half-maximal activity concentration (AC50) under setting [1] was 35.5 µM [falling, single point].
Turning to `CC1(C)CC(=O)C(CS(=O)(=O)c2ccccc2)=C(O)C1`, the AC50 under setting [1] was 22.4 µM [rising, single point].

The values above are taken from PubChem BioAssay AID493014 (National Center for Advancing Translational Sciences (NCATS), 2011).
